Measured values: patent publication US20110046349 (published 2011)

Tests used:
[1] = general procedure: hybrid (solid and solution phase) peptide synthesis; CTC resin; DIC/HOBt hydrate on solid phase (PyBOP, TOTU, TCTU for some couplings); TBTU, TO; settings: whole synthesis
[2] = general procedure: hybrid (solid and solution phase) peptide synthesis; CTC resin (fragments with C-terminal acid); Sieber amide resin (fragments with C-terminal amide); DIC/HOBt hydrate on solid phase (PyBOP, TOTU, TCTU for some couplings); TBTU, TO; settings: for crude purity (method not given): HPLC; for step yield: recovery yield

## Boc-^1His(Trt)-Gly-Glu(OtBu)-Gly-^5Thr(tBu)-Phe-Thr(tBu)-Ser(tBu)-Asp(OtBu)-^10Leu-OH
[1]; scale 11.0 mol
  crude mass: 18.3 kg
[2]; whole synthesis
  crude purity (method not given): 95%
[2]; whole synthesis, recovery yield based on target batch size of 11.0 mol
  crude yield: 99%

## Boc-^1His(Trt)-Gly-Glu(tBu)-^4Gly-PsiThr-Phe-Thr(tBu)-^8Ser(tBu)-Asp(tBu)-Leu-PsiSer-^12Lys(Boc)-OH
[2]; whole synthesis
  crude purity (method not given): 100%

## Fmoc-Phe-Ile-Glu(OtBu)-^25Trp(Boc)-Leu-Lys(Boc)-Asn(Trt)-Gly-OH
[1]; scale 17 mol
  crude mass: 27.4 kg
[2]; whole synthesis
  crude purity (method not given): 95%
[2]; whole synthesis, recovery yield based on target batch size of 17 mol
  crude yield: 93%

## Fmoc-Phe-Ile-Glu(OtBu)-^25Trp(Boc)-Leu-Lys(Boc)-Asn(Trt)-Gly-^30Gly-Pro-Ser(tBu)-Ser(tBu)-Gly-^35Ala-Pro-Pro-Ser(tBu)-Lys(Boc)-^40Lys(Boc)-Lys(Boc)-Lys(Boc)-Lys(Boc)-Lys(Boc)-NH2
[2]; coupling step
  crude purity (method not given): 97%
[2]; coupling step, non-corrected
  step yield: 68%

## Fmoc-Ser(tBu)-Lys(Boc)-Gln(Trt)-Met-^15Glu(OtBu)-Glu(OtBu)-Glu(OtBu)-Ala-Val-^20Arg(Pbf)-Leu-OH
[1]; scale 8.4 mol
  crude mass: 20.5 kg
[2]; whole synthesis
  crude purity (method not given): 94%
[2]; whole synthesis, recovery yield based on target batch size of 8.4 mol
  crude yield: 104%

## Fmoc-Ser-Lys-Gln-Met-^15Glu-Glu-Glu-Ala-Val-^20Arg-Leu-Phe-Ile-Glu-^25Trp--Leu-Lys-Asn-Gly-^30Gly-Pro-Ser-Ser-Gly-^35Ala-Pro-Pro-Ser-Lys-^40Lys-Lys-Lys--Lys-Lys-NH2
[2]; coupling step
  crude purity (method not given): 71%
  step yield: 89%

## Fmoc-^11Ser(tBu)-Lys(Boc)-Gln(Trt)-Met-Glu(tBu)-^16Glu(tBu)-Glu(tBu)-Ala-Val-Arg(Pbf)-^22Leu-Phe-Ile-Glu(tBu)-Trp(Boc)-^26Leu-OH
[2]; whole synthesis
  crude purity (method not given): 70.60%

## Fmoc-^11Ser(tBu)-Lys(Boc)-Gln(Trt)-Met-Glu(tBu)-^16Glu(tBu)-Glu(tBu)-Ala-Val-^20Arg(Pbf)-Leu-Phe-Ile-Glu(tBu)-^26Trp(Boc)-OH
[2]; whole synthesis
  crude purity (method not given): 69.60%

## Fmoc-^13Gln(Trt)-Met-Glu(tBu)-Glu(tBu)-Glu(tBu)-Ala-^19Val-Arg(Pbf)-Leu-Phe-Ile-Glu(tBu)-^25Trp(Boc)-Leu-Lys(Boc)-Asn(Trt)-^29Gly-OH
[2]; whole synthesis
  crude purity (method not given): 85.74%

## Fmoc-^13Gln(Trt)-Met-Glu(tBu)-Glu(tBu)-Glu(tBu)-^18Ala-Val-Arg(Pbf)-Leu-Phe-^23Ile-Glu(tBu)-Trp(Boc)-^26Leu-OH
[2]; whole synthesis
  crude purity (method not given): 75.50%

## Fmoc-^13Gln(Trt)-Met-Glu(tBu)-Glu(tBu)-^17Glu(tBu)-Ala-Val-Arg(Pbf)-^21Leu-Phe-Ile-Glu(tBu)-^25Trp(Boc)-OH
[2]; whole synthesis
  difficulty met: with the same problems as encoutered in example 25b
  crude purity (method not given): 50.69%

## Fmoc-^22Phe-Ile-Glu(tBu)-Trp(Boc)-Leu-^27Lys(Boc)-Asn(Trt)-Gly-Gly-^31Pro-OH
[2]; whole synthesis
  crude purity (method not given): 95.97%

## Fmoc-^22Phe-Ile-Glu(tBu)-Trp(Boc)-Leu-^27Lys(Boc)-Asn(Trt)-Gly-^30Gly-OH
[2]; whole synthesis
  crude purity (method not given): 95.97%

## Fmoc-^32Ser(tBu)-Ser(tBu)-Gly-Ala-Pro-Pro-^38Pro-OH
[2]; whole synthesis
  crude purity (method not given): 62.77%

## H-Phe-Ile-Glu(OtBu)-^25Trp(Boc)-Leu-Lys(Boc)-Asn(Trt)-Gly-^30Gly-Pro-Ser(tBu)-Ser(tBu)-Gly-^35Ala-Pro-Pro-Ser(tBu)-Lys(Boc)-^40Lys(Boc)-Lys(Boc)-Lys(Boc)-Lys(Boc)-Lys(Boc)-NH2
[2]; late stage modification step
  crude purity (method not given): 73%
  step yield: 99%

## H-^30Gly-Pro-Ser(tBu)-Ser(tBu)-Gly-^35Ala-Pro-Pro-Ser(tBu)-Lys(Boc)-^40Lys(Boc)-Lys(Boc)-Lys(Boc)-Lys(Boc)-Lys(Boc)-NH2
[2]; whole synthesis
  crude purity (method not given): 78%
[2]; whole synthesis, recovery yield based on target batch size of 0.54 mmol
  crude yield: 84%

## P2-Ser-Lys-Gln-Met-^15Glu-Glu-Glu-Ala-Val-^20Arg-Leu-Phe-Ile-Glu-^25Trp-Leu--Lys-Asn-Gly-^30Gly-Pro-Ser-Ser-Gly-^35Ala-Pro-Pro-Ser-Lys-^40Lys-Lys-Lys-Lys--Lys-NH2
[2]; late stage modification step
  crude purity (method not given): 66%

## P3-^1His-Gly-Glu-Gly-^5Thr-Phe-Thr-Ser-Asp-^10Leu-Ser-Lys-Gln-Met-^15G1u-Glu--Glu-Ala-Val-^20Arg-Leu-Phe-Ile-Glu-^25Trp-Leu-Lys-Asn-Gly-^30Gly-Pro-Ser-Ser--Gly-^35Ala-Pro-Pro-Ser-Lys-^40Lys-Lys-Lys-Lys-Lys-NH2
[2]; coupling step
  crude purity (method not given): 76%
  step yield: 97%
